# Reference: the supplement of paper PMC12823440, “Inhibitors supercharge kinase turnover through native proteolytic circuits” (Nature, 2025)
# Amino acid sequences for entries named in this document (tags omitted). A change or cut given only in a name is not applied to a line headed by its entry.
# UniProt P21860, whole entry: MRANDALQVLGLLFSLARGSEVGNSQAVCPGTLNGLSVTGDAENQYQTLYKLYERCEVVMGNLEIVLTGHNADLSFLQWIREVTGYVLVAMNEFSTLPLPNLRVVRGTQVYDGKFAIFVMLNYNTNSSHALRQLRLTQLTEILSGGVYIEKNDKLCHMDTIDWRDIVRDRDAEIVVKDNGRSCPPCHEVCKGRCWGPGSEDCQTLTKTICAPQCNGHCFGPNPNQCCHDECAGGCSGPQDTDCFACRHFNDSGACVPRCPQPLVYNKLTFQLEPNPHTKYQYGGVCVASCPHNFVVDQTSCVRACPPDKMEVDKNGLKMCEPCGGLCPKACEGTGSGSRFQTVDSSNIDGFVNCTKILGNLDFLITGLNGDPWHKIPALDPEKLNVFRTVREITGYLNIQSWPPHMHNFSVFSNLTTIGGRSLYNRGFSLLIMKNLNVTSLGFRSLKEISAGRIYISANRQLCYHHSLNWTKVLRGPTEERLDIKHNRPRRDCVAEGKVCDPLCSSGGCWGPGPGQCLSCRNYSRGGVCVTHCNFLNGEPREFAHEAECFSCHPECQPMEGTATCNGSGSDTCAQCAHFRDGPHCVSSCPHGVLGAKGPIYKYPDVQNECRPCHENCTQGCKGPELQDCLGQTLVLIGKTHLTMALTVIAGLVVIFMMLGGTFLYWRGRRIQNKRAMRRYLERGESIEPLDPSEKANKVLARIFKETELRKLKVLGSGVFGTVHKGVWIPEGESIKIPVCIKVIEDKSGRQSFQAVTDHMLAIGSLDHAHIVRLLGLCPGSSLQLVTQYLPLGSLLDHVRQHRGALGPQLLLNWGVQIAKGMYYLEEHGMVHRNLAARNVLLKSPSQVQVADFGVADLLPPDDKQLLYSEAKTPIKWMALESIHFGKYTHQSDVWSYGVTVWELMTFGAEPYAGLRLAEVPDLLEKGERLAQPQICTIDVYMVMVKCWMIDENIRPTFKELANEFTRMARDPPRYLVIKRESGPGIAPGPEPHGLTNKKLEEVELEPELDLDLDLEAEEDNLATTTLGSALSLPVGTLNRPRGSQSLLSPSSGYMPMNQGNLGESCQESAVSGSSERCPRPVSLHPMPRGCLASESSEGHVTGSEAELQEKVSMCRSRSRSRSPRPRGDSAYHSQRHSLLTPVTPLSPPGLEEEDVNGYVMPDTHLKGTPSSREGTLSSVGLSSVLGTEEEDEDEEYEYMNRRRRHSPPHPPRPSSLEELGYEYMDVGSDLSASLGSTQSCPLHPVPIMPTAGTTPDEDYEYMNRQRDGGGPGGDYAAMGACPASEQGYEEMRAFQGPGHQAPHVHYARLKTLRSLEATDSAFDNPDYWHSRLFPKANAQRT
# UniProt P11362, whole entry, looked up: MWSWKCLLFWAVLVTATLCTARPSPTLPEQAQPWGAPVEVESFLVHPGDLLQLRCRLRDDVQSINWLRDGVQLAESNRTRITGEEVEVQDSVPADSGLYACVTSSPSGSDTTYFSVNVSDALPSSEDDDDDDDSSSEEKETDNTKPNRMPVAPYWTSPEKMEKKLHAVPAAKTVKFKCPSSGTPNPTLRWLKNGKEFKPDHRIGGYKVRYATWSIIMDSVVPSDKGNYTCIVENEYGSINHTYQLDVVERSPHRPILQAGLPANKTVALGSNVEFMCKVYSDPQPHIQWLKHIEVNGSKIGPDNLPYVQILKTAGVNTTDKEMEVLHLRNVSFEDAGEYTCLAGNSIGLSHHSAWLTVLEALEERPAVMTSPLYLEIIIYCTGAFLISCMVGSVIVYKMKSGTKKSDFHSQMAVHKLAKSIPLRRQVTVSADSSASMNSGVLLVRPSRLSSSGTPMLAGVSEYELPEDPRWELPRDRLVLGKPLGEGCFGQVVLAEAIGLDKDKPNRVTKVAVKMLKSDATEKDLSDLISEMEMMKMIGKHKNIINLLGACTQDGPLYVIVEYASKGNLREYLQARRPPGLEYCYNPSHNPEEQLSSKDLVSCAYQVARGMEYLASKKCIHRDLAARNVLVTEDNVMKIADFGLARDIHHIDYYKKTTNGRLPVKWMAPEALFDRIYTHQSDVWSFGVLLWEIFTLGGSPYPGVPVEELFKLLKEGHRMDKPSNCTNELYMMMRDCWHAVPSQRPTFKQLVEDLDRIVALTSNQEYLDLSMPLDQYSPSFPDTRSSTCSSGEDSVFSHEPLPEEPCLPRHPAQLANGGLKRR
# UniProt P21802, whole entry, looked up: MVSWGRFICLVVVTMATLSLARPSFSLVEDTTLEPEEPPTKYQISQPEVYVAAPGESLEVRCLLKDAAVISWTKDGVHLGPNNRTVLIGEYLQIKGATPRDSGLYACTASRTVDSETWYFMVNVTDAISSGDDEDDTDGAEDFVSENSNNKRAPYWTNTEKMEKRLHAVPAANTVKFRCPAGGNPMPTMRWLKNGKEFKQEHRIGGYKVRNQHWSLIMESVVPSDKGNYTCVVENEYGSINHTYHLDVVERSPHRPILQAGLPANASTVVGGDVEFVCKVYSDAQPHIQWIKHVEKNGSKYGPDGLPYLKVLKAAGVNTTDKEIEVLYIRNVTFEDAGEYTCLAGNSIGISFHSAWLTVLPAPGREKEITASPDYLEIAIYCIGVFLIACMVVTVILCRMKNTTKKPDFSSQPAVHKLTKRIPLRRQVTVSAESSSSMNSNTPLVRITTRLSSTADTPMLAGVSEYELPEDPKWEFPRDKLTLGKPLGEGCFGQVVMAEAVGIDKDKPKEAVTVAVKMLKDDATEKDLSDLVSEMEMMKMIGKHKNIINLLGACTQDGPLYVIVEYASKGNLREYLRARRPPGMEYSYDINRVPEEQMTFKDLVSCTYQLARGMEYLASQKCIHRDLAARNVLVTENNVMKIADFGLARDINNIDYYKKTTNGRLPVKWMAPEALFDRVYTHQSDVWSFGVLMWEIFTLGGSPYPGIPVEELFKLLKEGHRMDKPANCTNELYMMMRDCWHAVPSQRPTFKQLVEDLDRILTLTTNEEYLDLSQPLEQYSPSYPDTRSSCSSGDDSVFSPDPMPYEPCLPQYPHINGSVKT
# UniProt P22607, whole entry, looked up: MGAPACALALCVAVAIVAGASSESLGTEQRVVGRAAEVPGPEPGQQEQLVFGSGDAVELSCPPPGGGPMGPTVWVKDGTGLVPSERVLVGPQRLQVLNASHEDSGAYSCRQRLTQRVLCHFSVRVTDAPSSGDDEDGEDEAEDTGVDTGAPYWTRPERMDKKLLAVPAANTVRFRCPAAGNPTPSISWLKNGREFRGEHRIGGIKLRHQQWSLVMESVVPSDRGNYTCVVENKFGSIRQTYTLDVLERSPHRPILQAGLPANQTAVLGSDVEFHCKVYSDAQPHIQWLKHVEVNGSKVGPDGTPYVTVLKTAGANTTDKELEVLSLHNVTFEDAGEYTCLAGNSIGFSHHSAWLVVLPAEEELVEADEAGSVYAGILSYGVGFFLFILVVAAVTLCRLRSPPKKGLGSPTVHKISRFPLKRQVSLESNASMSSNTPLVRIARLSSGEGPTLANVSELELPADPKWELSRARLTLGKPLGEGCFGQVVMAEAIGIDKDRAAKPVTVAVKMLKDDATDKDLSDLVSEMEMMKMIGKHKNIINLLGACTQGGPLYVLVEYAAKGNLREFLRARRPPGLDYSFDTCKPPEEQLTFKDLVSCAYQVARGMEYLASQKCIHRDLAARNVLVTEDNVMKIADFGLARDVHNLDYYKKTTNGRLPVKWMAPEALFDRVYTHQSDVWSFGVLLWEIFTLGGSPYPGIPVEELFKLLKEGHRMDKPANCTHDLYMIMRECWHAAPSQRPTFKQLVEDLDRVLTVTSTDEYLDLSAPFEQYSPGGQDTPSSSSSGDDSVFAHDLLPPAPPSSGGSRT
# UniProt P06241, whole entry, looked up: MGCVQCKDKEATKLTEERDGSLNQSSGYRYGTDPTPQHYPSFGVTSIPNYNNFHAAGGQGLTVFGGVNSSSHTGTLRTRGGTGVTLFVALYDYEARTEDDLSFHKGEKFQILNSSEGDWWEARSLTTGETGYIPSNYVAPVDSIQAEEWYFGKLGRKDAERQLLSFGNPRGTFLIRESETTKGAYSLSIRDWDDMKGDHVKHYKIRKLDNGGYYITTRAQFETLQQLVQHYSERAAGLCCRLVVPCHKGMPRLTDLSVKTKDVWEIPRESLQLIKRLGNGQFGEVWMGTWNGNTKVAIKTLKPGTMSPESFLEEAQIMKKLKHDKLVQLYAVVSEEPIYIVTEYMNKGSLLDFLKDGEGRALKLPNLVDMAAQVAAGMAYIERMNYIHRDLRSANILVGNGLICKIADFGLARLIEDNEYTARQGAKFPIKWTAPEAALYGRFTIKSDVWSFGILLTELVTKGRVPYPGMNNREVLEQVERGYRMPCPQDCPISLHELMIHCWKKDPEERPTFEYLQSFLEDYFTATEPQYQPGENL
# UniProt Q9Y616: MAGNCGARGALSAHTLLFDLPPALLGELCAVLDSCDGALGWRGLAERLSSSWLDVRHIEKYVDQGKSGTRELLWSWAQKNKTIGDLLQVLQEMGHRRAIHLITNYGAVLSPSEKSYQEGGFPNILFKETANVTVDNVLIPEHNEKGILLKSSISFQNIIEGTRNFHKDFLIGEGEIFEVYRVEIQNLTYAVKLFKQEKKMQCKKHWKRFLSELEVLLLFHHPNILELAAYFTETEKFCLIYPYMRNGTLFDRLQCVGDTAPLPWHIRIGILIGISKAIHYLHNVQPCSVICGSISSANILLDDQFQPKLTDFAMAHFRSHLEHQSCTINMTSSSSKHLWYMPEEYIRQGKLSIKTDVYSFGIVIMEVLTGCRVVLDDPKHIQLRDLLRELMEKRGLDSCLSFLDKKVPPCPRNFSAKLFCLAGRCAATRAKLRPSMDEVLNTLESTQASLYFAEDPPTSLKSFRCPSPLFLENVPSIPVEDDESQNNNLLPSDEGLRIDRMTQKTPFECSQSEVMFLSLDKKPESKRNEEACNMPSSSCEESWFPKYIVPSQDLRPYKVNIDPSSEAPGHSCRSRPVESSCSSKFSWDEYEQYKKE
# UniProt P53667: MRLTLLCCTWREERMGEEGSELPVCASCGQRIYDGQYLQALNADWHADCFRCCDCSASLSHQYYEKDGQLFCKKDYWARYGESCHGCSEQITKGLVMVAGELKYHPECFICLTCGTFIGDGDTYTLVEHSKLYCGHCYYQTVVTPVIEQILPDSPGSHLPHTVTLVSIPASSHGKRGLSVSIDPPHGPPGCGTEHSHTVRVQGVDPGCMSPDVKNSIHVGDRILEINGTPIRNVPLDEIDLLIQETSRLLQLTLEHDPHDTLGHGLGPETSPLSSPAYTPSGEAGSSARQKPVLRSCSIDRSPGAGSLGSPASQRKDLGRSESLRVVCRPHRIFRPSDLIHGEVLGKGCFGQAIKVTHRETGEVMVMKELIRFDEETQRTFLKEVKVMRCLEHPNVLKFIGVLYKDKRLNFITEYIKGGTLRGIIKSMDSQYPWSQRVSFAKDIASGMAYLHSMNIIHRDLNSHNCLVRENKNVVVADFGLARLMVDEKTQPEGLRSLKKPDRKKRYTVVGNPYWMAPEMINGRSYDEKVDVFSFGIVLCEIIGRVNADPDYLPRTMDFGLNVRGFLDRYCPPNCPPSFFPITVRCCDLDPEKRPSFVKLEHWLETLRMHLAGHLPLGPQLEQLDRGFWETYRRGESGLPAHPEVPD
# UniProt P53671: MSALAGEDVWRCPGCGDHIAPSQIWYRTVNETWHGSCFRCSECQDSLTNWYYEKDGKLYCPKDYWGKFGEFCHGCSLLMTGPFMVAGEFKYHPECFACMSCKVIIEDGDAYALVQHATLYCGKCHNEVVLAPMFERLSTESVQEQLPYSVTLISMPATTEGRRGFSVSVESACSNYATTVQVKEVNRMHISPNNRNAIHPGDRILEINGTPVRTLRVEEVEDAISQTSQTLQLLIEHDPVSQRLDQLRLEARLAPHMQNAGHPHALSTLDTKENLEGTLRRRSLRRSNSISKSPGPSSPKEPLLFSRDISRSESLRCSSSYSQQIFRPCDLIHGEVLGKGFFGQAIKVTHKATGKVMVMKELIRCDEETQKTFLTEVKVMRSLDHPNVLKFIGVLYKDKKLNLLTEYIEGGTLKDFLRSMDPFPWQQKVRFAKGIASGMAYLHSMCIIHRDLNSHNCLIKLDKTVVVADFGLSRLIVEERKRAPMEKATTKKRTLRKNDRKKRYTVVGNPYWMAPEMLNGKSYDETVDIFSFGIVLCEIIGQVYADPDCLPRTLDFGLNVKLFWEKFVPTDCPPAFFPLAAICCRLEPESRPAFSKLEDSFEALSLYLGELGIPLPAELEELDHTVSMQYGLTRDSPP
# Some of the results follow. Hit calls seldom repeat between salt and free forms of one compound.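 Kinases were expressed as nanoluciferase fusions in K562 cells and luminescence was read every 4 h between 2 and 18 h as percent of control, DMSO set to 100% and a positive control to 0%. A time point counts as decreased when the signal drops significantly (2 sigma). The hit call is the authors' own, does not follow from the count of time points alone, and its rule is not shown.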
# Columns and labels:
# Experiment in all cases: number of time points (of 5) at which kinase-Nluc abundance scored as decreased, DMSO-normalised (count); higher = more persistent destabilization
# Conditions in all cases: K562; 2-18 h
# EGFR_L861Q = EGFR_L861Q (UniProt P00533)
# EGFR_T790M = EGFR_T790M (UniProt P00533)
# EPHA2 = EPHA2 (UniProt P29317)
# ERBB3 = ERBB3 (UniProt P21860)
# [1] = molecular target: ERBB4_R711C (clone: ERBB4_mut) (UniProt Q15303)
# ERN1 = ERN1 (UniProt O75460)
# FGFR1 = FGFR1 (UniProt P11362)
# FGFR2 = FGFR2 (UniProt P21802)
# FGFR3 = FGFR3 (UniProt P22607)
# FGR = FGR (UniProt P09769)
# FLT3 = FLT3 (UniProt P36888)
# FYN = FYN (UniProt P06241)
# GSK3A = GSK3A (UniProt P49840)
# HER2 = HER2 (UniProt P04626)
# INSRR = INSRR (UniProt P14616)
# IRAK3 = IRAK3 (UniProt Q9Y616)
# JAK1 = JAK1 (UniProt P23458)
# LCK = LCK (UniProt P06239)
# LIMK1 = LIMK1 (UniProt P53667)
# LIMK2 = LIMK2 (UniProt P53671)
Compound,number of time points (EGFR_L861Q),number of time points (EGFR_T790M),number of time points (EPHA2),number of time points (ERBB3),number of time points [1],number of time points (ERN1),number of time points (FGFR1),number of time points (FGFR2),number of time points (FGFR3),number of time points (FGR),number of time points (FLT3),number of time points (FYN),number of time points (GSK3A),number of time points (HER2),number of time points (INSRR),number of time points (IRAK3),number of time points (JAK1),number of time points (LCK),number of time points (LIMK1),number of time points (LIMK2)
CC(C)CN[C@H]1CS(=O)(=O)C[C@@H]1S(=O)(=O)c1ccc(Cl)cc1 (10 µM),0,0,0,0,0,0,1,0,0,0,0,0,0,1,1,0,0,0,0,0
COc1ncc(-c2nc(N3CCOCC3)nc3c(CN4CCC(C(C)(C)O)CC4)cc(F)cc23)cc1NS(C)(=O)=O [Linperlisib] (10 µM),0,0,0,0,0,0,0,0,0,0,0,0,0,0,0,0,0,0,0,0
CC(=NNC(=O)c1ccc(C)c(Br)c1)c1ccc(O)cc1O [mTOR inhibitor-1] (2.5 µM),0,0,0,0,0,0,0,0,0,0,0,1,0,0,0,0,0,0,0,0
CNc1nc(Nc2cnn(C3CCN(C4COC4)CC3F)c2Cl)ncc1C(F)(F)F (stereo not given) (10 µM),0,0,0,0,0,0,0,0,0,0,0,0,0,0,0,0,0,0,0,0
COc1ccc(-c2ccc3c(N4CCOC[C@@H]4C)nc(N4CCOC[C@@H]4C)nc3n2)cc1CO (2.5 µM),3,0,1,3,4,2,4,4,4,0,4,3,0,3,4,3,3,0,4,4
O=C1c2ccc(Nc3ccc(F)cc3F)cc2CCc2ccc(OC[C@H](O)CO)cc21 [Skepinone-L] (2.5 µM),0,0,0,0,0,0,0,0,0,0,0,0,0,0,0,0,0,0,0,0
CC(C)=CC(=O)CCC(=O)N1CCN(Cc2cc3nc(-c4cccc5[nH]ncc45)nc(N4CCOCC4)c3s2)CC1 (10 µM),0,0,0,0,0,0,0,0,0,0,0,0,0,5,0,0,0,0,0,0
CCn1c(=O)c(-c2ccc(-c3cncc(C)n3)cc2Cl)cc2cnc(NCCC3CCN(C)CC3)nc21 (10 µM),0,0,0,0,0,0,0,0,0,0,0,0,0,0,0,0,0,0,0,0
COc1ccc(C(=C2C(=O)Nc3ccccc32)c2ccc(OC)cc2)cc1 (10 µM),0,0,0,0,0,0,0,0,0,0,1,0,0,0,0,0,0,0,0,0
CC(C)(C)c1ccc(S(=O)(=O)Nc2ccc(-n3ccnc3)cc2)cc1 (10 µM),0,0,0,0,0,0,0,0,0,0,0,0,0,0,0,0,0,0,0,0
Cn1nccc1Nc1nccc(-c2cc3c(s2)C(C)(C)N(CCN2CCOCC2)C3=O)n1 (10 µM),0,0,0,0,0,0,0,0,0,0,0,0,0,0,0,0,0,0,0,0
"O=C(O)c1cc(O)ccc1O [2,5-Dihydroxybenzoic acid] (10 µM)",0,0,0,0,0,0,0,0,0,0,0,0,0,0,0,0,0,0,0,0
CC(C)=CCC[C@](C)(O[C@@H]1O[C@H](CO)[C@@H](O)[C@H](O)[C@H]1O)[C@H]1CC[C@]2(C)[C@@H]1[C@H](O)C[C@@H]1[C@@]3(C)CC[C@H](O)C(C)(C)[C@@H]3[C@@H](O[C@@H]3O[C@H](CO)[C@@H](O)[C@H](O)[C@H]3O[C@@H]3O[C@@H](C)[C@H](O)[C@@H](O)[C@H]3O)C[C@]12C [Ginsenoside Re] (10 µM),0,0,0,0,0,0,0,0,0,0,0,0,0,0,0,0,0,0,0,0
CCN(CC)S(=O)(=O)c1ccc(OC)c(N2CCN(C(=O)c3ccc(F)cc3C(F)(F)F)CC2)c1 (10 µM),0,0,0,0,0,0,0,0,0,0,0,0,0,0,0,0,0,0,0,0
COCCOc1cnc(Sc2cc(C)c(-c3csc(NC(=O)c4ccncc4)n3)c(C)c2)cn1 [T-1101 (tosylate)] (2.5 µM),0,0,0,0,0,0,0,0,0,0,0,2,0,0,0,0,0,0,0,0
Fc1ccc(-c2nc(-c3c(F)cccc3F)[nH]c2-c2ccncc2)cc1 (10 µM),0,0,0,0,0,0,0,0,0,0,0,0,0,0,0,0,0,0,0,0
COc1cc(F)c(F)c(Nc2ccc(I)cc2F)c1NS(=O)(=O)C1(C[C@H](O)CO)CC1 [Refametinib] (10 µM),2,0,0,3,1,0,0,2,0,0,0,0,0,0,2,0,0,0,0,0
O=C(Nc1nc2ccccc2[nH]1)c1cccc(-n2cccc2)c1 (10 µM),0,0,0,0,0,0,0,0,0,0,0,0,0,0,0,0,0,0,0,0
COc1ccc(CC(=O)Nc2nc3c(s2)CCc2ccccc2-3)cc1OC (10 µM),0,0,0,0,0,0,0,0,0,0,0,0,0,0,0,0,0,0,0,0
C=C1C(=O)O[C@@H]2C[C@@]3(C)CCC[C@H](C)C3=C[C@H]12 [Alantolactone] (10 µM),0,0,0,0,0,0,0,0,0,0,0,0,0,0,0,0,0,0,0,0
Cc1ccc(Oc2nc3cc(-c4ccc5c(ccn5C)c4)c(Cl)cc3[nH]2)cc1C(=O)O (10 µM),0,0,0,0,0,0,0,0,0,0,0,0,0,0,0,0,0,0,0,0
CCOc1cc(C(=O)N2CCC(N3CCN(C)CC3)CC2)ccc1Nc1ncc2c(n1)N(C1CCCC1)c1ccccc1C(=O)N2C (10 µM),0,0,0,0,0,0,0,0,0,0,0,0,0,0,1,0,0,0,0,0
Nc1ncnc2c1c(-c1ccc(Oc3ccccc3)cc1)nn2C1CCCNC1 (racemic) (2.5 µM),0,0,0,0,0,0,0,0,0,0,0,0,0,0,0,0,0,0,0,0
COc1ccc([C@H]2c3[nH]c4ccc(Cl)cc4c3CCN2C(=O)Oc2ccc(Cl)cc2)cc1 (2.5 µM),0,0,0,0,0,0,0,0,0,0,0,0,0,0,0,0,0,0,0,0
COc1cc2ncnc(Nc3cccc(Cl)c3)c2cc1OC (10 µM),0,0,0,0,0,0,0,0,0,0,0,0,0,0,0,0,0,0,0,0

# As entered above:
# Fc1ccc(-c2nc(-c3c(F)cccc3F)[nH]c2-c2ccncc2)cc1 (10 µM) | number of time points (JAK1): 0
# CC(C)=CCC[C@](C)(O[C@@H]1O[C@H](CO)[C@@H](O)[C@H](O)[C@H]1O)[C@H]1CC[C@]2(C)[C@@H]1[C@H](O)C[C@@H]1[C@@]3(C)CC[C@H](O)C(C)(C)[C@@H]3[C@@H](O[C@@H]3O[C@H](CO)[C@@H](O)[C@H](O)[C@H]3O[C@@H]3O[C@@H](C)[C@H](O)[C@@H](O)[C@H]3O)C[C@]12C [Ginsenoside Re] (10 µM) | number of time points (ERBB3): 0
